Among the data in PubChem BioAssay AID2685 (National Center for Advancing Translational Sciences (NCATS), 2010) are cell number change and AC50 values, retold here.

The list shows a part of the results. The main result of the screen is listed elsewhere. These columns were measured beside it and carry no call. Compounds called inactive in the main read-out are mostly missing here. The note in brackets gives the kind of curve behind each potency; many fits are weak.

This test in a line: qHTS Assay for Lipid Storage Modulators in Drosophila S3 Cells.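 As to cell number change: cells counted by Cell Tracker Red CMTPX staining in the red channel.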 The settings on record: BODIPY lipid droplet fluorescence, 18-24 h; for cell number change: measured here: cell count max response, cells fed with added oleic acid. The procedure, abridged: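 Drosophila S3 cells loaded with oleic acid (400 uM, as added) and compounds at several concentrations; lipid droplets imaged by 488-nm laser-scanning cytometry, 500–530 nm intensity and object ratio to cell channel. Percent activity normalized to 20 uM Triacsin C.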
For orientation: Quantitative high-throughput screening tests each substance at several concentrations.

The mark [1] stands for this setting: measured here: cell number channel AC50, cells fed with added oleic acid.
[2] abbreviates: measured here: lipid fluorescence (Fed channel) AC50, cells fed with added oleic acid.

Take `CC(C)(O)[C@H]1O[C@H]2CC[C@@]3(C)[C@@](O)(CC[C@H]4Cc5c([nH]c6ccccc56)[C@@]43C)C2=CC1=O`: the cell number change came to 17.8%. Under setting [1], the AC50 (commonly the concentration at which the activity in the assay is half-maximal) was 6.51 µM [rising, single point].
On to `O=P(NS(=O)(=O)c1ccc(Br)cc1)(Oc1ccccc1)Oc1ccccc1`, for which the cell number change was -84.1%. Moreover, the AC50 under setting [1] was 25.9 µM [falling, partial curve]. In addition, the AC50 under setting [2] is 6.51 µM [falling, single point].
Take `CCOc1ccc([N+](=O)[O-])cc1CNCCc1ccccc1`: the cell number change was -2.5%. For the same compound, the AC50 under setting [1] is 0.13 µM [falling, single point]. Besides, the AC50 under setting [2] is 0.103 µM [falling, partial curve, poor fit].
Consider `COc1ccc(-c2nn(CCC#N)cc2C(=O)NCc2ccccc2)cc1`, for which the cell number change turned out to be 25.2%. The AC50 under setting [2] was 4.11 µM [rising, single point].
Turning to `Cc1c(-c2cccc(Cl)c2)nc2ccccc2c1C(=O)N1CCC2(CC1)OCCO2`, the cell number change is -62.7%. In addition, under setting [1], the AC50 is 22.4 µM [falling, single point]. The AC50 under setting [2] is 11.2 µM [falling, partial curve].
In the case of `CCN(CCCCOC(=O)c1ccc(OC)c(OC)c1)C(C)Cc1ccc(OC)cc1` (centres undefined), the AC50 under setting [1] is 6.51 µM [falling, single point].
In the case of `O=C1/C(=C\c2ccc3c(c2)OCO3)N2CCC1CC2`, the cell number change was 26.1%. In addition, the AC50 under setting [2] was 13 µM [rising, partial curve, poor fit].
As to `CCC1(c2ccccc2)C(=O)N(COC)C(=O)N(COC)C1=O`, the cell number change was determined as 31.8%. Under setting [1], the AC50 is 0.0651 µM [rising, full curve, poor fit]. Besides, under setting [2], the AC50 was 0.092 µM [falling, full curve].
With `COC(=O)C1=C(c2ccc(OC(F)(F)F)cc2)C[C@@H]2CC[C@H]1N2C(=O)N1CCC(O)CC1`, the cell number change stood at 8.59%. Further, the AC50 under setting [2] was 0.146 µM [rising, full curve, poor fit].
For the compound `COc1ccc(C2CN(C)CC2C(=O)c2ccc(F)cc2)cc1Cl` (centres undefined), the cell number change came out at 27.5%.
Turning to `CN(C)CC1CSCCC1(O)c1cccc(Cl)c1` (centres undefined), the cell number change was 30.4%. Further, the AC50 under setting [1] was 6.51 µM [rising, full curve, poor fit]. Also, the AC50 under setting [2] was 2.59 µM [rising, partial curve].
Take `O=c1c2ccccc2nc(-c2ccc(-c3ccccc3)cc2)n1-c1ccncc1`: under setting [2], the AC50 was 0.259 µM [rising, full curve, poor fit].
As to `O=C(CN1CCN(Cc2ccc(Cl)cc2)C1=O)N1CCC2(CC1)OCCO2`, the cell number change came to 14.4%. The AC50 under setting [1] was 1.84 µM [falling, partial curve]. Further, under setting [2], the half-maximal activity concentration (AC50) was 4.11 µM [falling, single point].
For the compound `CCn1c(C)cc(/C=C2\C(=O)NC(=O)N(c3ccccc3C)C2=O)c1C`, the cell number change amounted to 1.86%. Moreover, the AC50 under setting [2] is 0.291 µM [falling, partial curve, poor fit].
With `CCOP(=O)(OCC)C(O)c1ccc2c(c1)OCO2` (centres undefined), the cell number change stood at 35%. For the same compound, the AC50 under setting [2] was 29.1 µM [rising, single point].
On to `CCOC(=O)CSc1ccc(C(=O)N2CCC3(CC2)OCCO3)cc1[N+](=O)[O-]`, for which the cell number change was found to be 17.8%. Also, the AC50 under setting [2] was 0.00461 µM [rising, full curve, poor fit].
In the case of `Cc1cc(/C=C2\C(=O)NC(=O)N(Cc3ccccc3)C2=O)c(C)n1-c1ccc(Cl)c(C(=O)O)c1`, the cell number change turned out to be 10.2%. Also, under setting [1], the AC50 was 0.164 µM [rising, full curve, poor fit]. Also, the AC50 under setting [2] is 0.146 µM [rising, full curve, poor fit].
Consider `O=c1[nH]c(=O)n(Cc2ccccc2Cl)c(O)c1/C=C1/C=CC=N1`, for which the cell number change was 14%. Under setting [1], the AC50 was 2.31 µM [rising, partial curve, poor fit].
`C/C(=N\N1CCCCCC1)c1c(O)n(-c2ccc(Cl)cc2)c(=O)[nH]c1=O`: the cell number change was -37.6%. Also, under setting [1], the AC50 is 32.6 µM [falling, single point]. Also, the AC50 under setting [2] was 29.1 µM [falling, single point].
Take `O=[N+]([O-])c1ccc(N2CCCC(C(F)(F)F)C2)c2ccncc12` (centres undefined): the cell number change stood at 5.65%. In addition, under setting [2], the AC50 was 29.1 µM [falling, single point].
As for `CCOc1ccccc1-n1c(O)c(C=Nc2ccc(N(CC)CC)cc2)c(=O)[nH]c1=O`, the cell number change was -2.64%.
With `Cc1ccc(Oc2cc(NN3CCCCC3)c([N+](=O)[O-])cc2[N+](=O)[O-])c([N+](=O)[O-])c1`, the cell number change was found to be 16.2%. The AC50 under setting [2] was 29.1 µM [rising, single point].
On to `Cc1cc(/C=C2/C(=O)NC(=O)N(Cc3ccco3)C2=O)c(C)n1-c1ccc(C(=O)O)cc1`, for which the cell number change is -3.5%.
`CCCCCn1c(=O)c(C(=O)NCc2ccc(Cl)cc2)c(O)c2ccccc21`: the cell number change was 8.39%. Also, the AC50 under setting [2] is 29.1 µM [falling, single point].
On to `Cc1ccc(CN2CCCN(Cc3ccc(Cl)cc3)S2(=O)=O)cc1`, for which the cell number change worked out at 17.6%.
In the case of `CCCCCSc1cc(OC)c(CCN(C)C)cc1OC`, the cell number change was -21%. For the same compound, the AC50 under setting [2] is 6.51 µM [falling, single point].
As for `CCn1c(=O)cc(OCC(=O)N2CCN(Cc3ccc4c(c3)OCO4)CC2)c2ccccc21`, the cell number change is 29%. Under setting [2], the AC50 was 29.1 µM [rising, single point].
Consider `CC(Oc1ccc(-c2ccccc2)cc1)C(=O)O` (centres undefined), for which the cell number change is 108%. The AC50 under setting [1] was 29.1 µM [rising, single point]. Further, the AC50 under setting [2] was 0.731 µM [rising, single point].
As for `Cc1ccc2c(c1)CC1(CN2C)C(=O)NC(=O)N(c2cc(C)ccc2C)C1=O` (centres undefined), the cell number change worked out at 89%. Moreover, the AC50 under setting [1] is 9.2 µM [rising, partial curve]. Besides, under setting [2], the AC50 is 20.6 µM [rising, partial curve].
Consider `O=C(c1ccc2c(c1)N(Cc1ccccc1)CCS2)N1CCC2(CC1)OCCO2`, for which the cell number change was -3.54%. Besides, the AC50 under setting [2] was 20.6 µM [falling, partial curve].
As to `CCOc1ccccc1CNCCc1ccc2c(c1)OCO2`, the cell number change is -7.35%. Under setting [2], the AC50 is 20.6 µM [rising, single point].
Consider `N[C@@H]1C[C@H]1c1ccccc1`, for which the cell number change is 13.1%. For the same compound, the AC50 under setting [2] is 0.184 µM [rising, full curve, poor fit].
`CCOP(=O)(OCC)C(Nc1ccccc1)c1ccccc1C(F)(F)F` (centres undefined): the AC50 under setting [1] was 2.31 µM [rising, single point].
For `COc1ccc(-n2c(O)c(C=NCCCn3ccnc3)c(=O)[nH]c2=O)cc1`, the cell number change was -11.3%. For the same compound, the AC50 under setting [1] is 6.51 µM [falling, single point]. For the same compound, the AC50 under setting [2] was 5.17 µM [falling, full curve].
For `CCOC(=O)c1cc(CC)sc1/N=C/c1c(O)[nH]c(=S)[nH]c1=O`, the cell number change came to 7.45%. In addition, the AC50 under setting [1] is 0.461 µM [falling, single point]. Besides, the half-maximal activity concentration (AC50) under setting [2] was 0.461 µM [falling, partial curve, poor fit].
For `CCC(Oc1cc(Cl)ccc1Cl)C(=O)N1CCC2(CC1)OCCO2` (centres undefined), the cell number change was -28.1%. Further, the AC50 under setting [2] was 29.1 µM [falling, single point].
As for `CNc1cc(Cl)c2nonc2c1[N+](=O)[O-]`, the cell number change was -60.5%.
For `O=C(COc1ccccc1F)N1CCN(CCN2C(=O)c3cccc4cccc(c34)C2=O)CC1`, the cell number change amounted to 103%. For the same compound, the AC50 under setting [1] is 29.1 µM [rising, single point].
On to `O=C(COC(=O)c1cccc(O)c1)Nc1ccc(Cl)cc1C(=O)c1ccccc1`, for which the cell number change was -37.2%. Further, the AC50 under setting [1] was 8.2 µM [falling, partial curve]. Moreover, under setting [2], the AC50 is 9.2 µM [falling, partial curve].
In the case of `CN(C)C(=O)On1c(-c2ccccc2)nc2ccc(Cl)cc21`, the AC50 was 0.259 µM [rising, full curve, poor fit] under setting [1] and 0.82 µM [rising, full curve, poor fit] under setting [2].
Regarding `O=P1(Oc2ccccc2)CC=C[C@H](COCc2ccccc2)O1` (some centres undefined), the cell number change was 11.5%. In addition, under setting [2], the AC50 was 0.58 µM [rising, full curve, poor fit].
On to `O=c1c2ccccc2nc(-c2ccco2)n1-c1nccs1`, for which the cell number change is -1.01%. In addition, the AC50 under setting [2] was 6.51 µM [rising, single point].
As for `CC(C)OC12Oc3ccccc3C=C1N1CCC2CC1` (centres undefined), the cell number change was -55.8%. Besides, the AC50 under setting [1] was 29.1 µM [falling, single point]. Under setting [2], the concentration at half-maximal activity (AC50) was 0.146 µM [falling, full curve].
For `N#Cc1ccccc1Cn1cc(C(=O)c2ccco2)c2ccccc21`, under setting [2], the AC50 is 6.51 µM [falling, single point].
As for `CCC(=Nc1ccc(OC)cc1OC)c1c(O)n(C2CCCCC2)c(=O)[nH]c1=O`, the cell number change was -43.4%. Besides, the AC50 under setting [1] is 9.2 µM [falling, partial curve, poor fit]. In addition, the AC50 under setting [2] was 14.6 µM [falling, partial curve].
On to `N=C(N)c1c(O)n(C2CCCCC2)c(=O)n(C2CCCCC2)c1=O`, for which the cell number change was -147%.
`O=C(Cc1ccccc1)OCC(=O)c1ccccc1`: the cell number change was -12.7%. Further, the AC50 under setting [2] was 0.00461 µM [falling, full curve, poor fit].
For `CC/C(=N\NC(=S)Nc1ccccc1)c1c(O)[nH]c(=O)[nH]c1=O`, the cell number change worked out at 8.26%. The AC50 under setting [2] is 0.00411 µM [rising, full curve, poor fit].
As to `CN(C)N=O`, the cell number change was -16.9%.
For `CC1(C)NCCN2C(=O)CSC21` (centres undefined), the cell number change is -39.2%. The AC50 under setting [1] was 25.9 µM [falling, single point]. Further, the AC50 under setting [2] is 29.1 µM [falling, single point].
Consider `COCCN(C(=O)COC(=O)Cc1ccccc1)c1c(N)n(Cc2ccccc2)c(=O)[nH]c1=O`, for which the cell number change was 0.326%. In addition, the AC50 under setting [2] was 16.4 µM [falling, partial curve, poor fit].
Consider `CC(C)CC1C(C#N)=C(N)Oc2c1c(=O)oc1ccccc21` (centres undefined), for which the cell number change was -0.243%. Besides, the AC50 under setting [2] is 2.59 µM [rising, single point].
Regarding `COc1ccc(C(=O)CN2CCCCC2)cc1`, the AC50 under setting [2] is 0.206 µM [falling, full curve, poor fit].
With `COc1ccc(-c2nn(Cc3ccccc3)cc2C(=O)NC2CC2)cc1OC`, the cell number change was -6.53%. Besides, under setting [1], the AC50 was 3.66 µM [falling, single point]. Under setting [2], the AC50 is 0.00461 µM [falling, full curve, poor fit].
For the compound `O=P(O)(CCCP(=O)(O)CCc1ccccc1)CCc1ccccc1`, the AC50 under setting [1] is 4.61 µM [falling, full curve, poor fit].
